PubChem BioAssay AID1224828 | NIAID – 2016
This is one part, drawn at random, of about 17,000 deposited reagents. 762 of them (4.5%) count as active. 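Active calls include both raised and lowered p65 entry, mostly lowered; wells with fewer than 50 cells lack a z-score.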 Raw values vary from plate to plate and are shown uncorrected. A reagent listed more than once was tested more than once; the source does not tell the runs apart. Reagent sequences are not shown.

- Purpose: 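Regulators linking TLR4 signalling to p65 nuclear translocation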 (primary screen)
- Cells: mouse RAW264.7 G9 macrophage reporter cells (GFP-p65, Tnf promoter-mCherry)
- Reagents: siRNA pool against mouse genes, 100 nM
- Timing: 2 days siRNA transfection, then 40 min LPS before fixation
- Conditions: LPS (Salmonella minnesota R595) at 10 ng/ml
- Read-out: 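Microscopy ratio of nuclear to perinuclear-ring GFP-p65 signal, scaled to the plate median; gene score is the average of two replicate robust z-scores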
- Reading the numbers: p65 translocation robust z-score: higher = more nuclear NF-kappaB p65 after LPS than the plate median; nuclear/cytoplasmic p65 ratio: higher = more nuclear NF-kappaB p65
- Hit rule: 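Active if robust z is above 3.3 (negative regulators) or below -1.56, the Tlr4 control median (positive regulators); activity score 50 or more; control wells not called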
- Calls: active = hit (p65 shift raised or lowered); inactive = no clear change

{"gene knocked down":"Myadm (myeloid-associated differentiation marker)","p65 translocation robust z-score":-0.66,"nuclear/cytoplasmic p65 ratio, rep 1":1.67,"nuclear/cytoplasmic p65 ratio, rep 2":1.5,"low cell count flag":"enough cells to score","call":"inactive"}
{"gene knocked down":"Supt4a (SPT4A, DSIF elongation factor subunit)","p65 translocation robust z-score":-0.9,"nuclear/cytoplasmic p65 ratio, rep 1":1.31,"nuclear/cytoplasmic p65 ratio, rep 2":1.54,"low cell count flag":"enough cells to score","call":"inactive"}
{"gene knocked down":"Agk (acylglycerol kinase)","p65 translocation robust z-score":0.62,"nuclear/cytoplasmic p65 ratio, rep 1":1.67,"nuclear/cytoplasmic p65 ratio, rep 2":1.56,"low cell count flag":"enough cells to score","call":"inactive"}
{"gene knocked down":"Agk (acylglycerol kinase)","nuclear/cytoplasmic p65 ratio, rep 1":1.22,"nuclear/cytoplasmic p65 ratio, rep 2":1.29,"low cell count flag":"fewer than 50 cells per well; well left out of scoring","call":"inactive"}
{"gene knocked down":"Vps53 (VPS53 GARP complex subunit)","nuclear/cytoplasmic p65 ratio, rep 1":1.35,"nuclear/cytoplasmic p65 ratio, rep 2":1.14,"low cell count flag":"fewer than 50 cells per well; well left out of scoring","call":"inactive"}
{"gene knocked down":"Mocs2 (molybdenum cofactor synthesis 2)","p65 translocation robust z-score":0.3,"nuclear/cytoplasmic p65 ratio, rep 1":1.49,"nuclear/cytoplasmic p65 ratio, rep 2":1.37,"low cell count flag":"enough cells to score","call":"inactive"}
{"gene knocked down":"Mau2","nuclear/cytoplasmic p65 ratio, rep 1":1.33,"nuclear/cytoplasmic p65 ratio, rep 2":1.67,"low cell count flag":"fewer than 50 cells per well; well left out of scoring","call":"inactive"}
{"gene knocked down":"Golph3l (golgi phosphoprotein 3-like)","nuclear/cytoplasmic p65 ratio, rep 1":1.6,"nuclear/cytoplasmic p65 ratio, rep 2":1.21,"low cell count flag":"fewer than 50 cells per well; well left out of scoring","call":"inactive"}
{"gene knocked down":"Tmem68 (transmembrane protein 68)","p65 translocation robust z-score":0.01,"nuclear/cytoplasmic p65 ratio, rep 1":1.4,"nuclear/cytoplasmic p65 ratio, rep 2":1.28,"low cell count flag":"enough cells to score","call":"inactive"}
{"gene knocked down":"Slc34a1","nuclear/cytoplasmic p65 ratio, rep 1":0,"nuclear/cytoplasmic p65 ratio, rep 2":2.25,"low cell count flag":"fewer than 50 cells per well; well left out of scoring","call":"inactive"}
{"gene knocked down":"Or5t9 (olfactory receptor family 5 subfamily T member 9)","p65 translocation robust z-score":-0.43,"nuclear/cytoplasmic p65 ratio, rep 1":1.66,"nuclear/cytoplasmic p65 ratio, rep 2":1.46,"low cell count flag":"enough cells to score","call":"inactive"}
{"gene knocked down":"Or6c70 (olfactory receptor family 6 subfamily C member 70)","p65 translocation robust z-score":1.02,"nuclear/cytoplasmic p65 ratio, rep 1":1.51,"nuclear/cytoplasmic p65 ratio, rep 2":1.39,"low cell count flag":"enough cells to score","call":"inactive"}
{"gene knocked down":"Lipk (lipase family member K)","nuclear/cytoplasmic p65 ratio, rep 1":1.64,"nuclear/cytoplasmic p65 ratio, rep 2":1.78,"low cell count flag":"fewer than 50 cells per well; well left out of scoring","call":"inactive"}
{"gene knocked down":"Bzw1 (basic leucine zipper and W2 domains 1)","p65 translocation robust z-score":0.21,"nuclear/cytoplasmic p65 ratio, rep 1":1.46,"nuclear/cytoplasmic p65 ratio, rep 2":1.38,"low cell count flag":"enough cells to score","call":"inactive"}

An excerpt from above, reduced to “low cell count flag”:
Tmem68 (transmembrane protein 68): enough cells to score
Slc34a1: fewer than 50 cells per well; well left out of scoring
